Laboratory results as given in article PMC6264874, “A single class of ARF GTPase activated by several pathway-specific ARF-GEFs regulates essential membrane traffic in Arabidopsis” (PLoS Genetics, 2018).

Legend:
[1] = target: T1, GNL2-GFP (GN::GNL2-GFP) (Arabidopsis thaliana) (UniProt F4K2K3); experiment: co-IP; protein extracts of 5-6 days old Arabidopsis seedlings expressing differently tagged ARFs and ARF-GEFs; lysis buffer 50mM Tris pH 7.5, 150mM NaCl, 2mM EDTA, 1% Triton X-100; alpha-Myc-agarose, GFP-Trap or RFP-Trap beads, 2.5-3h in the cold room; immunoblot; in some experiments with BFA (50 uM); T31N and Q71L forms induced with 20 uM estradiol for 6h
T1 sequence: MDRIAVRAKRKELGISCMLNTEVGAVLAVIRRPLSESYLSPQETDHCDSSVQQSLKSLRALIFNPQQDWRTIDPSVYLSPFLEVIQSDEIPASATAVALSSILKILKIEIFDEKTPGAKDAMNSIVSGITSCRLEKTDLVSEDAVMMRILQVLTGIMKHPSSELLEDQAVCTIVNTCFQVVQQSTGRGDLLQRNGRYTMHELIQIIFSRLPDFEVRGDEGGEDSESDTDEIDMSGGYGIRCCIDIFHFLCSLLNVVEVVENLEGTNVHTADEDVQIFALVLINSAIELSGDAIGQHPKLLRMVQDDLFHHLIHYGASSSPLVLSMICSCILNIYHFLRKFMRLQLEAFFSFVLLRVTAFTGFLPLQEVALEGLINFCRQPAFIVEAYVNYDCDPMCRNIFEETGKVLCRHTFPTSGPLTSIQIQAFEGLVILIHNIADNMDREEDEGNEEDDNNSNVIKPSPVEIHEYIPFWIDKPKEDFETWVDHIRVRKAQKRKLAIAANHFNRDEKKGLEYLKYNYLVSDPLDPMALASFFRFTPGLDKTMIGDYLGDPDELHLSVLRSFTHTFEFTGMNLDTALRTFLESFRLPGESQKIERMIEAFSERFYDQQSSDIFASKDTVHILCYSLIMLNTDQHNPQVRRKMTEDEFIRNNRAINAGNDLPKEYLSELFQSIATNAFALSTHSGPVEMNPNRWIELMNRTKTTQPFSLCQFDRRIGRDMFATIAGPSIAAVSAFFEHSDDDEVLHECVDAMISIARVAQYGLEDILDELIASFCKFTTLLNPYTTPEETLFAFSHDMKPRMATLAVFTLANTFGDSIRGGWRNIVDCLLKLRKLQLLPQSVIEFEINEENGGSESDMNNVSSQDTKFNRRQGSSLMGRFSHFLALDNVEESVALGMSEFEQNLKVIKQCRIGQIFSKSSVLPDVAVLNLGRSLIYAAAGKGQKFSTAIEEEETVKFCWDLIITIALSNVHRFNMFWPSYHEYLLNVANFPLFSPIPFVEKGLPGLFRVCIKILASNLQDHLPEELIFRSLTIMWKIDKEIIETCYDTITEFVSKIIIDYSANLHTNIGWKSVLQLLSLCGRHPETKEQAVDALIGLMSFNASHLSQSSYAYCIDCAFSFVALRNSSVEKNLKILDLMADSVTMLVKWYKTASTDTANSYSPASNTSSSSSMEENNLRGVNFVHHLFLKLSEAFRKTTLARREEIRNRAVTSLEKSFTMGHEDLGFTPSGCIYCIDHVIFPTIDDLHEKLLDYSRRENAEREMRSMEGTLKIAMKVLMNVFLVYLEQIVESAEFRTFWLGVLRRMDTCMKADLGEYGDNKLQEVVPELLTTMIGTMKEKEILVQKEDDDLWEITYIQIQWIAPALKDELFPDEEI

[2] = target: T2, GNL1-Myc (Arabidopsis thaliana) (UniProt Q9FLY5); experiment: as above
T2 sequence: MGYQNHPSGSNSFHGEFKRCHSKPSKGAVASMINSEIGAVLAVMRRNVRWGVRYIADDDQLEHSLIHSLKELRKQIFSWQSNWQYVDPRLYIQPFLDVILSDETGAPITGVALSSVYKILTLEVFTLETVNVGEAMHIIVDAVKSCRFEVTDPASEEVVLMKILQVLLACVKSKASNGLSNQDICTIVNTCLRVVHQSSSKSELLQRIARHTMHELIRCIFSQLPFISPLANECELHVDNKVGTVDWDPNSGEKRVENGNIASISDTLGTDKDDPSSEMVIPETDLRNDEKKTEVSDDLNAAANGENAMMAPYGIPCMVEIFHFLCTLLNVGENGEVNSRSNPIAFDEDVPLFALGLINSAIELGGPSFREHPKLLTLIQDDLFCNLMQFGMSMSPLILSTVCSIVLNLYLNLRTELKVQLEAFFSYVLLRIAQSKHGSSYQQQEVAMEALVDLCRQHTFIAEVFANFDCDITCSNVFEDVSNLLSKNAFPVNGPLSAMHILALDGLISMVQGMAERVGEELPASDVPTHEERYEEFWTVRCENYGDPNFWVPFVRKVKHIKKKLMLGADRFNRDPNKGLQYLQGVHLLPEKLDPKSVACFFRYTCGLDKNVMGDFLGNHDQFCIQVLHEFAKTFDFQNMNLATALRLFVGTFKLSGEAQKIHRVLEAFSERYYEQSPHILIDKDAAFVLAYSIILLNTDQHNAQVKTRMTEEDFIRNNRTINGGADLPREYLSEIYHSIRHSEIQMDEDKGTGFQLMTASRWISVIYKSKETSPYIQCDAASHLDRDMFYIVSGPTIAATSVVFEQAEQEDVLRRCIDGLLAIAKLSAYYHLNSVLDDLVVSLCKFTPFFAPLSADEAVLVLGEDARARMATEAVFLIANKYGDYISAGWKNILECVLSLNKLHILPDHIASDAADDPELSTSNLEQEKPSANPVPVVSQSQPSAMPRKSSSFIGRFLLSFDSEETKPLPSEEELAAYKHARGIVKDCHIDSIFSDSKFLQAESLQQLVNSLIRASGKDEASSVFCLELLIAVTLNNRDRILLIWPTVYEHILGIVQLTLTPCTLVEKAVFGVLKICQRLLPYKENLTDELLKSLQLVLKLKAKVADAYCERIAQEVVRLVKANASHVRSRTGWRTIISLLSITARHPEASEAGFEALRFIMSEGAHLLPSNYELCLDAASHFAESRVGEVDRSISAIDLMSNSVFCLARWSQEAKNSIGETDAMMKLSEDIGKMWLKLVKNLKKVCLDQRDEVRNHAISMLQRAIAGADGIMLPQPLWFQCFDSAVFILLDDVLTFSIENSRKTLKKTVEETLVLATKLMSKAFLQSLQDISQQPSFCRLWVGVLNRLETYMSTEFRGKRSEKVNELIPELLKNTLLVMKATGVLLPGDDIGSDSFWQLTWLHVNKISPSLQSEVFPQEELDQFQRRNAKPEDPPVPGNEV

Row | binding [1] | binding [2] | Substance
1 | binds | binds | endogenous ARF1
2 |  | no binding | ARFA-YFP (ARFB1b-YFP) (Arabidopsis thaliana)

No constants are given. Whether binding was seen depends on the method and setting. In cells and extracts the contact can be indirect. Binding calls can cover weak binding; strength is not graded here. Sequences can lack the tags named with a protein.
